From article PMC9550837
Results are given in words; binding and its absence hold for the method and conditions named. For some of these results: In cells and extracts the contact can be indirect. Some results given as binding are weak or reduced against the parent protein; the word gives no strength.

Protein sequences, listed by entry. Tags and fused reporters are not part of them. Lines headed by an entry give the natural chain unless they say otherwise; changes in a name come on top.
UniProt P31260: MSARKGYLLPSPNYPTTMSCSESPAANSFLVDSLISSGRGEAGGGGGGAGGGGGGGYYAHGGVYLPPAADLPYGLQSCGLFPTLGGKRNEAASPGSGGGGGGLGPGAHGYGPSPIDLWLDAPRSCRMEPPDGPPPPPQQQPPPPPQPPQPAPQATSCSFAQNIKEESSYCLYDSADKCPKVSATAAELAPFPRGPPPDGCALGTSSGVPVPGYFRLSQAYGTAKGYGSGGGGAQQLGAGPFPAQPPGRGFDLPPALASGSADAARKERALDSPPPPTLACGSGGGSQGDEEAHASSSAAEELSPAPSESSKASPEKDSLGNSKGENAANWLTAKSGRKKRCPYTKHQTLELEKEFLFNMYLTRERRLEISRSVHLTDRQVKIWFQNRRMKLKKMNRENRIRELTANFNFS
UniProt Q9Y6R4: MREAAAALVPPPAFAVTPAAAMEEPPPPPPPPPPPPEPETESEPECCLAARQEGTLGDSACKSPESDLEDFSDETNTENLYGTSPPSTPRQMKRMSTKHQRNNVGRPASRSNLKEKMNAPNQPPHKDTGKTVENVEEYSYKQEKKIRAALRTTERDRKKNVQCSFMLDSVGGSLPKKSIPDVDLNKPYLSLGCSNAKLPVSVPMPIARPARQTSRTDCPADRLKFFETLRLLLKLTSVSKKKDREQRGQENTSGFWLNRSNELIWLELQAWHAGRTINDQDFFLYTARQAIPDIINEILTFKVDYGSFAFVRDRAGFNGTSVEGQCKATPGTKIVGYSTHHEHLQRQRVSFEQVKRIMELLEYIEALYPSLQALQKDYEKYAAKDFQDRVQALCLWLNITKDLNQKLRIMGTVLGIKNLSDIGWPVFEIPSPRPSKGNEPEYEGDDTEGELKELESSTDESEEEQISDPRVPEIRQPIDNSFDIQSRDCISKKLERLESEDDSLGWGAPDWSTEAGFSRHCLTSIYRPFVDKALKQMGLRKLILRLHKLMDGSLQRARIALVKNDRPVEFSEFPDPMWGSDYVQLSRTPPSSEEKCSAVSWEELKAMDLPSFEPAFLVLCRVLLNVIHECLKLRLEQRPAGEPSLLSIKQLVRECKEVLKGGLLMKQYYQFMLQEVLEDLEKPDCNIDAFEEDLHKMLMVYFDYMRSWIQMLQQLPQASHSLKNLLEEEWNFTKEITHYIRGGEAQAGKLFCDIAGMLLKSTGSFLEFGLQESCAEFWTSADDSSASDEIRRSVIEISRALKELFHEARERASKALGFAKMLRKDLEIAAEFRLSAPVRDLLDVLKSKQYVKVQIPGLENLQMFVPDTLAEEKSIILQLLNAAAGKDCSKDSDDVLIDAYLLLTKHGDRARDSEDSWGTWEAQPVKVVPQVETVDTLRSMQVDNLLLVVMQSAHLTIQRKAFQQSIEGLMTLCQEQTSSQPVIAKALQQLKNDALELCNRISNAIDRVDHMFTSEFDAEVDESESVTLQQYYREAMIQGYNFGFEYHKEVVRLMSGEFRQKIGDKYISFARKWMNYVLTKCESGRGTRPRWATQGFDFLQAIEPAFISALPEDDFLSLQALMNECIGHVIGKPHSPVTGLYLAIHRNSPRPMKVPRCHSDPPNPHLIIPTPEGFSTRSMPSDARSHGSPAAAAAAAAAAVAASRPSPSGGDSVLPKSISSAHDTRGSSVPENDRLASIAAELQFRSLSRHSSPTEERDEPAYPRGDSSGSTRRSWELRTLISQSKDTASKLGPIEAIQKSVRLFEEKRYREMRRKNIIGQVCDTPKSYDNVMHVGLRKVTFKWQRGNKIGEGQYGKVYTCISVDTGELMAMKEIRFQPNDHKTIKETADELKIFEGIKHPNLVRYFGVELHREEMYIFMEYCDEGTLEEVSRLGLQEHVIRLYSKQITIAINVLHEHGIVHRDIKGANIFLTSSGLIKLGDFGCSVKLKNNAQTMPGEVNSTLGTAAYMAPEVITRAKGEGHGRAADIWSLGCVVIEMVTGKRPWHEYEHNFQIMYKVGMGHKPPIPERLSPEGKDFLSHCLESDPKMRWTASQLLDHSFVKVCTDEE

Key:
[1] = biological target: HOXA10 (yeast two-hybrid) (human) (UniProt P31260); assay: two-hybrid; yeast two-hybrid technique; no details given
[2] = biological target: Myc-HOXA10 (Homeobox A10) (human) (UniProt P31260); assay: co-IP; 293T cells co-transfected for 48 h; lysis in 50 mM Tris-HCl pH 7.6, 1.0% NP-40, 150 mM NaCl; anti-Myc beads or anti-Flag M2 beads at 4 °C overnight; Western blot with anti-Flag-HRP and anti-Myc-HRP
Myc-HOXA10^T362A (human) = Myc-HOXA10^T362A (human) (UniProt P31260); assay: as above
[3] = biological target: endogenous MEKK4 (human (endogenous in Ishikawa)) (UniProt Q9Y6R4); assay: co-IP; anti-MEKK4 endogenous immunoprecipitation from Ishikawa cell lysates, Western blot; mouse IgG as negative control

MEKK4 (yeast two-hybrid) (from UniProt Q9Y6R4 1-1608) (enzyme)
binding [1]: binds

MEKK4-Flag (Mitogen-activated protein kinase kinase kinase 4) (from UniProt Q9Y6R4 1-1608) (enzyme)
binding [2]: binds
binding (Myc-HOXA10^T362A (human)): binds

endogenous HOXA10 (from UniProt P31260 1-410)
binding [3]: binds
